Tested on: human CD38
Assay: Epitope mapping using PEPSCAN method
Type: binding

B1: -024: human monoclonal IgG1 anti-CD38 antibody, VL region SEQ ID No:22 and VH region SEQ ID No:27 (antibody, listed as Homo sapiens, V domains shown)
VH: EVQLVQSGAEVKKPGESLKISCKGSGYSFSNYWIGWVRQMPGKGLEWMGIIYPHDSDARYSPSFQGQVTFSADKSISTAYLQWSSLKASDTAMYYCARHVGWGSRYWYFDLWGRGTLVTVSS
VL: EIVLTQSPATLSLSPGERATLSCRASQSVSSYLAWYQQKPGQAPGLLIYDASNRASGIPARFSGSGSGTDFTLTISSLEPEDFAVYYCQQRSNWPLTFGGGTKVEIK
For B1, the “regions of human CD38 bound” value was “SKRNIQFSCKNIYR and EKVQTLEAWVIHGG”.

— patent US20240165226A1, “COMBINATION TREATMENT OF CD38-EXPRESSING TUMORS” (GENMAB A/S, priority 2006, published 2024)
